Test results from the supplement of paper PMC6445147.
Single values of this data set are uncertain.

B1: human tRNA-Pro; a variant is named by its letters at N, in order (parent)
chain: GGCTCGTTGGTCTAGNGGTATGATTCTCGCTTAGGGTGCGAGAGGTCCCGGGTTCNNATCCCGGACGAGCCC

Variants of: B1
Test: tRNA 5' processing efficiency (processed reads / all reads, maximum-likelihood estimate) (fraction); higher = more efficient 5' processing
Details: HEK293T; construct: CMV Pol-II promoter ((+)CMV library, decapped)

Variant	tRNA 5' processing efficiency
GAA C55T A58T T59A	0.17
GAA T8A G9T A58T	0.17
AAA G15T G18T T19A A20C T53C	0.33
TAA T8A G9T G17A G18T T19G T53A	0.25
GAA G15A T53A C55A	0.33
GAA G9T A14G C55A	0.2
GAA G9C A14T T53A	0.5
GAA G15A G45T A58T	0.25
GAA G9A G17T A20T	0.1
GAA G9A G17T A20C	0.08
GAA G17C T54A C55T A58T	0.33
CAA G9C G15A G17C T53C	0.5
GAA G18A T54C C55G T59A	0.33
GAA G15C T19C T54G C55T T59G	0.33
GAA G9A G15T C55T	0.33
GAA G15T T53C T59A	0.2
GAA T8C A14G A20G T54C C55G T59A	0.33
GAA G9C G38A T54G A58T	0.33
GAA G15C G18A A20T	0.25
GAA G15T T59A	0.4
GAA G15A T19A T54A C55A	0.25
GAA G9A G17A T19A A20G	0.33
GAA T8A T54C	0.25
GAA G18T A20G T54A	0.25

Variant	tRNA 5' processing efficiency
GAA G9C C55T T59C	0.25
GAA T8A G9C G18C A20T T53G	0.25
CAA G18T C55T T59C	0.25
GAA G18A T19G T54C	0.2
GAA G9A G15C G17A T54C	0.2
GAA T8A C55G	0.2
GAA C55G A58C	0.4
GAA T8A G9T G17T G18T	0.5
TAA G9C C55A A58C	0.23
TAA G15T T54A A58T T59G	0.06
GAA G9C A14G G17T G18T T54C	0.25
GAA G18T C55G T59C	0.2
GAA G9T T19A C55G	0.33
GAA A14T T19G	0.25
TAA G9C A20C T59C	0.69
TAA G15T T19G	0.25
GAA G15C G17C T54C C55T A58C	0.13
CAA G9T	0.1
GAA G9T A20T C55A	0.29
GAA G18C T53A A58T	0.33
GAA G18T T53A C55A A58G	0.25
CAA T8A G9C G15C	0.2
GAA C55G T59C	0.25
AAA G15T G17T G18T C55T	0.2

Variant	tRNA 5' processing efficiency
CAA G15C	0.2
GAA G18A T19C A20G A58C	0.25
GAA G9C G15T T53G C55T	0.2
GAA G15C T53G C55A	0.2
CAA G9A G15T A58G T59A	0.33
TAA G15A G18C C55A	0.25
CAA T8C G15A G17T G18A A20G T54G A58C T59C	0.4
GAA G9T G15A G18T A20T T54G	0.33
GAA G17T G18T T54A A58T	0.1
TAA G18C A20G C55T	0.33
GAA G9C G18T T53G C55T A58T T59G	0.33
GAA G15C G17T C55A T59A	0.2
GAA T8C A20C A58C	0.33
GAA G15T A58G	0.17
GAA G17T T19C C55T	0.25
GAA G9C G15C G18A T19A T53C T54C	0.25
GAA G9A G15C G17C T53C	0.33
GAA A20C T53A A58T	0.17
TAA G18T A20G	0.2
GAA T8C G9A A14T T19A	0.5
GAA G17C C55A A58C T59G	0.2
GAA T8A T19G T53C T54A T59G	0.25
GAA G9C A14C A20G T53G C55T T59A	0.25
GAA A14T G15C T19G	0.17

Variant	tRNA 5' processing efficiency
GAA G9T G15C G18T T53A T54A A58G	0.33
GAA A20C T54C	0.33
GAA G17T T53C	0.22
GAA G9C T54A C55G	0.25
GAA G18T T53C	0.17
GAA G18A T53C	0.2
GAA G9T T19G C55T	0.18
GAA G9C A14T G15A T54A C55T	0.25
GAA G15T T54A T59G	0.2
GAA A20G T54G	0.25
GAA A14T T53G T54G	0.33
GAA A14T G17T G42A	0.33
GAA G9A T54G T59C	0.2
CAA G18A A20C T54C A58C	0.33
GAA G9C G18A A20T C55G	0.25
GAA G17C A20G	0.1
GAA G18A T19A A58T	0.14
GAA G17A G18A T53A	0.33
TAA A20C	0.7
GAA A14T G18C T54A T59G	0.17
GAA G9T G17T C55G A58G	0.2
GAA G17A A20G A58C T59C	0.25
GAA G18C T19C A20T A58C	0.11
GAA G15A T53C C55T	0.25

Variant	tRNA 5' processing efficiency
GAA T8A A20C A58T	0.33
GAA A14T G17T A20G A58C	0.22
GAA A20C C55A	0.2
GAA G15T G17T T54A A58C T59C	0.17
GAA T8C A14T G18A C55A A58T	0.17
GAA G18C T53A T59C	0.25
GAA G9C A14G G18T A20G C55G A58G	0.25
GAA G17A C55T	0.4
GAA G17A C55A	0.25
AAA G9A	0.25
AAA G9C	0.33
GAA G9C G18T C55A	0.4
GAA G15T C55A	0.18
CAA G9A T53A A58G	0.2
GAA G9C A58T	0.25
GAA G18T T53G T54G	0.25
GAA G18T T53G T54A	0.2
AAA A20C T59A	0.33
TAA G9C G17T T59G	0.17
GAA G17C C55A A58G	0.25
GAA G9T A14G G15T T19G	0.25
TAA A14T G15T T59G	0.83
GAA T8A A14T C55G T59A	0.33
GAA G18T C55A	0.33

A few values from the results shown:
CAA G9A T53A A58G – tRNA 5' processing efficiency: 0.2
AAA G9A – tRNA 5' processing efficiency: 0.25
TAA G9C G17T T59G – tRNA 5' processing efficiency: 0.17

(list continues)

Variant	tRNA 5' processing efficiency
AAA A20G T54G T59A	0.17
GAA G9C A14G T53A T54C C55G	0.2
GAA G9T T19A A43G T53C	0.2
GAA G9C C55A	0.2
GAA G17A G18A C55A	0.25
GAA G9C G17C G18T T19A A20T T54A C55A	0.5
TAA G9A A20T	0.25
GAA A14T G17C T53A A58T T59C	0.25
TAA T8C G15C G17C	0.33
CAA G18T T19C C55A A58G	0.2
GAA G18T A20C T54A A58T	0.4
GAA A20G G38A	0.25
GAA G17C G18T T19A T53G T54A	0.2
GAA T8A A20G T54C	0.33
GAA T8A A14G T19G	0.2
GAA T8A A14G A20C C55T	0.5
TAA G18A T53A	0.17
GAA T8A G17T G18A A58G	0.33
GAA T8C G9T G15A G17T T53A A58T	0.2
GAA G15T G18C T19C	0.25
GAA T8C G9A T19C C55T	0.17
GAA G17A A20T	0.7
CAA G15C T19A	0.33
CAA A14T G17C C55A	0.11

Variant	tRNA 5' processing efficiency
AAA A20T A58C	0.33
GAA T8A T19C G29T	0.33
GAA C55A A58G T59A	0.25
CAA T8A A14T T53C A58T T59C	0.5
CAA G18C A58G	0.25
GAA G17C T53A C55T T59C	0.5
GAA T8C G9T G17C T54C C55G	0.4
GAA A14T G18T A20C A58T	0.17
GAA G9T G15T C55G	0.2
GAA G15A G17C T54A A58T	0.25
CAA G9C T53G C55A	0.08
AAA G51A	0.25
GAA T8A A14G G17A G18C T53G T54G	0.33
GAA G18T A20C A58C	0.11
CAA G9T T19C A20G	0.33
CAA G15T G17A T53A	0.17
GAA G15T T19A A20G	0.25
GAA T8A G18C A58G	0.25
AAA G9A C55G	0.17
GAA A14T T19A A58T	0.33
GAA G9T T54A C55G	0.25
GAA G15A T19G T53A T54C	0.33
TAA G15A A20T T53A	0.18

Reprinted at random: 2 entries already listed, in no set order.
Variant	tRNA 5' processing efficiency
GAA G15A T19G T53A T54C	0.33
CAA G18C A58G	0.25
